For this test, the target named is mouse cannabinoid receptor 2 (mouse) (UniProt P47936). Description: condition: dimerization cannot exceed 29% (90% confidence); single-molecule two-colour coincidence (smTIRF microscopy); HEK-293T cells cotransfected with HaloTag- and SNAP-tag-fused copies, labelled with HaloTag TMR Ligand and SNAP-Cell 505-Star, fixed in 4% formaldehyde; coincidence = HaloTag spots within 300 nm of a SNAP-tag spot for at least 10 frames, relative to all HaloTag spots; referenced to CD86 (monomer) and CD28 (dimer).

Protein sequences, listed by entry. Tags and fused reporters are not part of them.
UniProt P47936: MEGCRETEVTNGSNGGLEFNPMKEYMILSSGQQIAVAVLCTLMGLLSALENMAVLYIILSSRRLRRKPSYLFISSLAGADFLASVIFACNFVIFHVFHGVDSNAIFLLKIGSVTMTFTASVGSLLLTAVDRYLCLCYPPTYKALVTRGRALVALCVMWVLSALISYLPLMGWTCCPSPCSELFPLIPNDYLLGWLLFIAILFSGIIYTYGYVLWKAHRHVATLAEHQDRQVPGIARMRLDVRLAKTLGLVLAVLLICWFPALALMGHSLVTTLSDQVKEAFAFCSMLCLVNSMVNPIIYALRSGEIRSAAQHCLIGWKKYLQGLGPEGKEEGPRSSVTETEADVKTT

Data on 1 substance can be found in paper PMC4643199.

No constants are given. Whether binding was seen depends on the method and setting.

Consider “mouse cannabinoid receptor 2 (from UniProt P47936 1-347)”, for which the binding result is on record as “no binding”.
